A short description of the assay: qHTS Assay for Modulators of Lamin A Splicing. The note with it: HeLa LMNA splicing GFP/RFP minigene ratio, 48 h. The method, boiled down: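 Read-out is the ratio of GFP to DsRed2 object intensity, acquired by 488 nm laser-scanning cytometry on HeLa lamin A-EGFP minigene reporter cells. Compound incubation 48 hrs at 37 °C in Opti-MEM with 2% FBS; DMSO 0.5% final.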
In general terms: Quantitative high-throughput screening tests each substance at several concentrations.

Setting [1] is: measured here: GFP splicing reporter channel.
The mark [2] stands for this setting: measured here: RFP viability control channel.

In general, AC50 refers to the concentration giving half of the maximal activity seen.

“And” between values parts separate entries of the source, which are not always exact repeats. Equal entries are not always repeated. The list shows a part of the results. Further columns of the screen follow, without active or inactive calls. Compounds called inactive in the main read-out are mostly missing here. Words in brackets tell the shape of the fitted curve; partial curves, single points and poor fits give uncertain potencies.

With `Cc1ccc(-c2nn3c(C)nnc3c3ccccc23)cc1S(=O)(=O)NCCO`, the AC50 reads like this: under setting [1], 22.4 µM [falling, partial curve]; under setting [2], 35.5 µM [falling, partial curve, poor fit].

With `CN1CCC[C@@H]1c1cccnc1`, the half-maximal activity concentration (AC50) is, setting by setting: under setting [1], 1.78 µM [falling, partial curve, poor fit]; under setting [2], 0.00447 µM [rising, full curve, poor fit].

As for `O=C(COc1ccccc1)N1CCN(Cc2c[nH]c3ccccc23)CC1`, the concentration at half-maximal activity (AC50) reads like this: under setting [1], 14.1 µM [rising, partial curve]; under setting [2], 15.8 µM [rising, single point].

As to `Cc1cccc(Cn2cccc(C(=O)Nc3ccc(F)cc3F)c2=O)c1`, the AC50 under setting [1] is 0.112 µM [rising, full curve, poor fit].

As to `O=c1c2cc(N3CCOCC3)ccc2[nH]c(=S)n1Cc1ccc(Cl)cc1`, the AC50 under setting [2] is 7.08 µM [rising, partial curve].

With `CN1CC[C@@]2(C)c3cc(O)ccc3N(C)C12` (some centres undefined), the half-maximal activity concentration (AC50) runs as follows: under setting [1], 11.2 µM [falling, partial curve]; under setting [2], 22.4 µM [falling, partial curve].

Take `Cc1cc(NC(=O)COC(=O)c2c(C)nn(Cc3ccccc3Cl)c2C)no1`: the half-maximal activity concentration (AC50) by setting is: under setting [1], 35.5 µM [falling, single point]; under setting [2], 25.1 µM [falling, partial curve].

Take `O=[N+]([O-])c1ccc2nc(CCCc3nc4ccc([N+](=O)[O-])cc4[nH]3)[nH]c2c1`: the AC50 by setting is: under setting [1], 0.316 µM [falling, full curve]; under setting [2], 0.355 µM [falling, full curve].

Take `CN1CCN(c2cc(N3CCCCCC3)c(F)cc2[N+](=O)[O-])CC1`: the half-maximal activity concentration (AC50) by setting is: under setting [1], 20 µM [rising, partial curve, poor fit]; under setting [2], 22.4 µM [rising, partial curve, poor fit].

In the case of `CC(C)OC(=O)c1c(N)n(Cc2ccco2)c2nc3ccccc3nc12`, under setting [2], the AC50 was 5.62 µM [falling, single point].

With `CN(C)c1ccc(P(=O)(Nc2ccc([N+](=O)[O-])cc2)N2CCOCC2)c(NC(=O)c2cccs2)c1` (centres undefined), the concentration at half-maximal activity (AC50) under setting [2] is 0.282 µM [rising, partial curve, poor fit].

With `COC(=O)[C@@H]1C[C@H]1[C@@H](NP(=O)(c1ccccc1)c1ccccc1)c1ccccc1`, under setting [2], the AC50 is 11.2 µM [rising, partial curve].

Turning to `C/C(=N\NC(=O)c1ccncc1)c1c(O)n(-c2ccccc2)c(=O)[nH]c1=O`, the AC50 under setting [1] was 20 µM [rising, partial curve, poor fit].

As to `c1ccc2c(c1)[I+]c1ccccc1-2`, the AC50 is, setting by setting: under setting [1], 2.51 µM [falling, full curve, poor fit]; under setting [2], 5.62 µM [falling, partial curve].

Regarding `N#Cc1cc2c(nc1SCC(=O)Nc1ccc(Cl)cc1)C1CCN2CC1`, the half-maximal activity concentration (AC50) under setting [2] was 15.8 µM [rising, partial curve].

Consider `CN(C)C(=O)Oc1cc(OC(=O)N(C)C)cc([C@@H](O)CNC(C)(C)C)c1`, for which the AC50 is 1.41 µM [rising, single point] under setting [1] and 0.0891 µM [rising, partial curve, poor fit] under setting [2].

In the case of `O=C(c1ccc2c(c1)N(Cc1ccc(F)cc1)C(=O)c1ccccc1S2)N1CCC2(CC1)OCCO2`, the AC50 under setting [1] was 0.158 µM [falling, full curve, poor fit].

Take `O=[N+]([O-])c1cc([As](=O)(O)O)ccc1O`: the half-maximal activity concentration (AC50) under setting [2] is 0.355 µM [falling, full curve, poor fit].

Turning to `O=S(=O)(O)c1cc(O)ccc1O`, the concentration at half-maximal activity (AC50) was 0.282 µM [falling, full curve] under setting [1] and 0.141 µM [falling, full curve] under setting [2].

In the case of `NC(=O)c1ncn([C@H]2O[C@@H](CO)[C@@H](O)[C@@H]2O)n1`, the concentration at half-maximal activity (AC50) is, setting by setting: under setting [1], 3.16 µM [falling, single point]; under setting [2], 3.16 µM [falling, single point].

`O=[N+]([O-])c1cc(I)c(O)c(I)c1`: the AC50 was 0.794 µM [rising, full curve, poor fit] under setting [1] and 35.5 µM [falling, single point] under setting [2].

For the compound `CN(C)CC/C=C1\c2ccccc2Sc2ccc(Cl)cc21`, the AC50 is 282 nM [falling, full curve, poor fit] and 2.51 nM [falling, full curve, poor fit] under setting [1]; 8.91 µM [rising, partial curve, poor fit] and 25.1 µM [rising, partial curve] under setting [2].

As to `CNc1ccc2oc(C[C@H]3O[C@@]4(CC[C@H]3C)O[C@H]([C@H](C)C(=O)c3ccc[nH]3)[C@H](C)C[C@H]4C)nc2c1C(=O)O`, the AC50 reads like this: under setting [1], 2.82 µM [falling, full curve]; under setting [2], 3.16 µM [falling, full curve].

`COc1ccc(C2=NCc3nnc(C)n3-c3ccc(Cl)cc32)cc1Cl`: the half-maximal activity concentration (AC50) under setting [2] was 12.6 µM [rising, partial curve].

Take `COc1cccc(CN2CCN(C(=O)COc3ccc4ccccc4c3)CC2)c1`: the AC50 under setting [2] was 35.5 µM [rising, single point].

Consider `Cc1ccc(-n2ncc(C(=O)N3CCN(c4ccc(Cl)cc4)CC3)c2C2CCN(C(=O)OC(C)(C)C)CC2)c(C)c1`, for which the concentration at half-maximal activity (AC50) under setting [2] is 35.5 µM [rising, single point].

Turning to `COc1ccc2c(c[n+](C)c3c4cc5c(cc4ccc23)OCO5)c1OC`, the AC50 is 2.82 µM [falling, full curve] under setting [1] and 3.16 µM [falling, full curve] under setting [2].

On to `CCN1CC2(COC(=O)c3ccccc3N)CCC(OC)C34C5CC6C(OC)CC(O)(C5C6OC)C(O)(C(OC)C23)C14` (centres undefined), for which the AC50 under setting [2] was 0.0794 µM [falling, full curve, poor fit].

As for `Cc1ccc(C(=O)O)cc1N=Nc1c(O)[nH]c(=O)[nH]c1=O`, the AC50 reads like this: under setting [1], 0.251 µM [rising, full curve, poor fit]; under setting [2], 0.158 µM [rising, full curve, poor fit].

In the case of `CCCCn1c(O)c(C=NC2CC3CCC2(C)C3(C)C)c(=O)[nH]c1=O` (centres undefined), under setting [2], the AC50 is 20 µM [rising, partial curve, poor fit].

In the case of `CCOC(=O)c1c(-n2c(C)cc(/C=C3\C(=O)NC(=O)N(C)C3=O)c2C)sc2c1CCCC2`, the AC50 under setting [2] was 12.6 µM [falling, partial curve].

Take `CCC(=O)c1c(O)n(C2CCCCCC2)c(=O)[nH]c1=O`: under setting [2], the concentration at half-maximal activity (AC50) is 35.5 µM [rising, single point].

Regarding `CCN(CC)c1ncnc2c1ncn2[C@@H]1O[C@H](COP(=O)(O)OP(=O)(O)C(Br)(Br)P(=O)(O)O)[C@@H](O)[C@H]1O`, the AC50 under setting [1] was 0.112 µM [falling, full curve].

`COc1ccc(CN2CCN(c3ccccc3F)CC2)c(OC)c1`: the concentration at half-maximal activity (AC50) under setting [2] is 8.91 µM [rising, partial curve].

Turning to `CC1CCCC(C)N1c1nnc(NC(=O)Cn2c(=O)oc3ccccc32)s1` (centres undefined), under setting [2], the concentration at half-maximal activity (AC50) is 5.01 µM [rising, partial curve, poor fit].

In the case of `C[C@@]12CC[C@H]3[C@@H](CC[C@@H]4C[C@H]5S[C@H]5C[C@]43C)[C@H]1CC[C@H]2O`, the AC50 by setting is: under setting [1], 4.47 µM [rising, partial curve]; under setting [2], 1.12 µM [rising, full curve, poor fit].

Regarding `CCCCCCCCCC(=O)O[C@H]1CC[C@H]2[C@@H]3CCC4=CC(=O)CC[C@]4(C)[C@H]3CC[C@]12C`, the half-maximal activity concentration (AC50) reads like this: under setting [1], 20 µM [rising, single point]; under setting [2], 31.6 µM [rising, single point].

On to `CCC(C)N1C(=O)/C(=C/c2ccc3c(c2)CCN3CCCCl)C(=O)NC1=S` (centres undefined), for which the AC50 was 12.6 µM [falling, partial curve] under setting [1] and 10 µM [falling, partial curve] under setting [2].

For `C[N+]1(C)CCN(c2ccccc2)CC1`, the AC50 under setting [1] was 0.00501 µM [falling, full curve, poor fit].

Turning to `NC(=O)COc1c(F)cc(SCCNS(=O)(=O)c2ccccc2)cc1F`, the half-maximal activity concentration (AC50) under setting [1] was 3.16 µM [rising, partial curve].

As for `Nc1nc2[nH]c(=O)cnc2c(=O)[nH]1`, the AC50 under setting [2] was 0.00447 µM [falling, full curve, poor fit].

On to `CC1CCN(CC(=O)c2ccc3c(c2)OCCO3)CC1`, for which the half-maximal activity concentration (AC50) under setting [2] was 0.0794 µM [rising, full curve, poor fit].

For the compound `CC(C(=O)c1ccccc1)N1C(=O)c2ccccc2C1=O` (centres undefined), the AC50 under setting [2] was 0.631 µM [falling, single point].

Turning to `CCCCCC1CC(CC(=O)NC(=S)Nc2ccc([N+](=O)[O-])cc2)C(=O)O1` (centres undefined), the AC50 under setting [2] is 31.6 µM [rising, single point].

Turning to `Cc1ccc(-c2cc(-c3ccc(C)cc3)[n+](C)o2)cc1`, the concentration at half-maximal activity (AC50) is 15.8 µM [rising, partial curve] under setting [1] and 7.08 µM [rising, partial curve] under setting [2].

Take `O=c1c2ccccc2nc(CSc2ncnc3nc[nH]c23)n1-c1ccccc1`: the AC50 under setting [1] was 12.6 µM [falling, single point].

As for `Cc1ccc(NC(=O)Cn2c(=O)oc3cc(S(=O)(=O)N4CCCCCC4)ccc32)cc1Cl`, the concentration at half-maximal activity (AC50) was 10 µM [falling, partial curve, poor fit] under setting [1] and 17.8 µM [falling, partial curve, poor fit] under setting [2].

For `Cc1ccccc1-n1c(-c2ccco2)nc2ccccc2c1=O`, the AC50 under setting [1] is 15.8 µM [rising, single point].

Take `COc1ccccc1N1C(=O)NC(=O)C2(Cc3cc(C)ccc3N(C)C2)C1=O` (centres undefined): the AC50 under setting [2] was 0.631 µM [rising, partial curve].

As for `CCOc1cccc(C2NCc3ccccc3-n3cccc32)c1O` (centres undefined), the AC50 under setting [2] is 15.8 µM [rising, single point].

On to `COc1ccc2c(c1)c(C(=O)CN1CCN(C)CC1)c(C)n2Cc1ccccc1`, for which, under setting [1], the concentration at half-maximal activity (AC50) was 12.6 µM [rising, partial curve, poor fit].

Consider `COc1ccc2c(c1)C13CCCC[C@@H]1C(C2)N(C)CC3` (some centres undefined), for which the concentration at half-maximal activity (AC50) was 0.0708 µM [falling, full curve, poor fit] under setting [1] and 0.0708 µM [falling, full curve, poor fit] under setting [2].

Source of the values: PubChem BioAssay AID1487 (National Center for Advancing Translational Sciences (NCATS), 2009).
